Experimental data as given in patent publication US11472815B2, “1,4-diphenyl-1H-imidazole and 2,4-diphenylthiazole derivatives and preparation method therefor and use thereof” (SOUTHERN MEDICAL UNIVERSITY, priority 2018, dated 2022).
At least one structure is not confirmed: it was looked up by name or label, or the drawing left a doubt.

The chains behind the UniProt entries cited, without tags or fusion partners. Residues count along the entry.
UniProt O60603, 19-784: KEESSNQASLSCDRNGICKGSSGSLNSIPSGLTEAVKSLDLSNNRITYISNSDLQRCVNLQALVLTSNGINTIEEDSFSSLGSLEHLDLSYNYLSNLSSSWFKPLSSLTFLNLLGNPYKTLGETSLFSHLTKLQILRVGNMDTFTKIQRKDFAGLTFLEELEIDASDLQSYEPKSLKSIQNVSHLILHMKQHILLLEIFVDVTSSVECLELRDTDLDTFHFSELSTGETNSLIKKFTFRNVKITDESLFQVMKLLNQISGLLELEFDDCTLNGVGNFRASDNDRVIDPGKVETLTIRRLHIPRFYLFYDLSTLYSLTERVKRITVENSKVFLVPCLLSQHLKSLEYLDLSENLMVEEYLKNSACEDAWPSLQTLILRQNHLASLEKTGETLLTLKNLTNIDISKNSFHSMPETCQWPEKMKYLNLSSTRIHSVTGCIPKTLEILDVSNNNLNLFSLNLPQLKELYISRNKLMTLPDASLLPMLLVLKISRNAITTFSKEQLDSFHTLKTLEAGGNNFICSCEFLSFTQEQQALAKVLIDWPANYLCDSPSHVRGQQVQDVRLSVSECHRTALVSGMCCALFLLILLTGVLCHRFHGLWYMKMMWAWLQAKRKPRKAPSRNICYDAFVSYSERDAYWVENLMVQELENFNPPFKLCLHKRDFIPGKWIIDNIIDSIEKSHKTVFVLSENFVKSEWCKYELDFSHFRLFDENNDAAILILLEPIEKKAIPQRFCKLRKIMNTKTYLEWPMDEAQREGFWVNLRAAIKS
UniProt Q15399, 25-786: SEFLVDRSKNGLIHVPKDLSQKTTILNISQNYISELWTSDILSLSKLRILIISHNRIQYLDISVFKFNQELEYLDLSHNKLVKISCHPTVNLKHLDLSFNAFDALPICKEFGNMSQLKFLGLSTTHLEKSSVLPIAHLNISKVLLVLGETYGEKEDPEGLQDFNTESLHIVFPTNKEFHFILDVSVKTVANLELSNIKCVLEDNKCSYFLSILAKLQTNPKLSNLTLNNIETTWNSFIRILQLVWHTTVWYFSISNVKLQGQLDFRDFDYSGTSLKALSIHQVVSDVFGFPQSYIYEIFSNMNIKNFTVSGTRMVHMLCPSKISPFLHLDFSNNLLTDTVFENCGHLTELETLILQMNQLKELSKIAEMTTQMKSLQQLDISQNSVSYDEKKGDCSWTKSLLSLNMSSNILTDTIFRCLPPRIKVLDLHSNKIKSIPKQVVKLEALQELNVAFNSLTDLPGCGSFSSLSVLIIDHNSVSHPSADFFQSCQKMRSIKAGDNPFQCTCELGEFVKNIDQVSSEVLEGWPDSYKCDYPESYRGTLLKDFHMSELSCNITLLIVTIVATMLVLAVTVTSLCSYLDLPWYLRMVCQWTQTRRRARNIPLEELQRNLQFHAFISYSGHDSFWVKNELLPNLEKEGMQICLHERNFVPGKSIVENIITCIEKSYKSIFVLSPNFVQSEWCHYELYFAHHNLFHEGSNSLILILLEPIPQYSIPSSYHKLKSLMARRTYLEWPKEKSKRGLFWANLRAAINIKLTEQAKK

Biological target: TLR1/2 (Homo sapiens (Human), UniProt O60603+Q15399)
Experiment: Detection of TLR1/2 activation activity (SEAP signal) using TLR1/2 HEK BLUE cells
Type: cell-based
Conditions: HEK BLUE TLR1/2 cells, 24 hours, SEAP read at 620 nm; highest concentration 100 μM; [‡] highest SEAP signal less than 50% of the activation value of compound 22
Description: TLR1/2 activation activity was detected using TLR1/2 HEK BLUE cells. TLR1/2 HEK BLUE cells were cultured in DMEM medium containing 10% fetal bovine serum, 1% penicillin and streptomycin, and incubated in a 37° C. cell incubator containing 5% CO2.
HEK BLUE TLR1/2 cells were spread in a 384-well plate at 20,000 cells/well, cultured at 37° C., 5% CO2 for 24 hours, 25 μL per well. When the cells grew well, 100 μM compound and doubling-diluted for 11 concentration gradients. After the cells were kept for 24 hours in the CO2 incubator, 40 μL of indigo blue solution was added to each well of the plate in the dark, and reading was conducted 4 times in an interval of 15 minutes at 620 nm to detect the signal intensity of SEAP in the cell supernatant.

Row | TLR1/2 activation activity EC50 | SMILES
1 | NA[†] | COc1ccc(-c2nc(-c3ccc(C(F)(F)F)cc3)cs2)cc1 [Compound 8, 4-(4-methoxyphenyl)-2-(3-(trifluoromethyl)phenyl)thiazole]
2 | NA[†] | Oc1cc(C(F)(F)F)ccc1-c1csc(-c2ccccc2C(F)(F)F)n1 [Compound 16, 5-(trifluoromethyl)-2-(2-(2-(trifluoromethyl)phenyl)thiazol-5-yl)phenol]
3 | NA[†] | O=[N+]([O-])c1ccc(-c2nc(-c3ccc(C(F)(F)F)cc3O)cs2)cc1 [Compound 19, 2-(4-(4-nitrophenyl)thiazol-2-yl)-5-(trifluoromethyl)phenol]
